Cleaved PARP in drug-treated melanoma cells

Values as published with doi:10.1371/journal.pone.0140310, rounded.

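Human melanoma cells were exposed to two drugs together for 72 h in 1,536-well plates and read by automated microscopy after fixing and staining. The read-out is the fraction of cleaved-PARP-positive nuclei, in % of that fraction in the DMSO control; 200 means twice the control level of this apoptosis marker. Concentrations were fixed for each drug; these are the higher of two levels. These are primary screening values without error estimates. The marker varies much from line to line, for technical or biological reasons.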
Only some of the drugs and lines screened are listed, without regard to their results.
A dash means that no value is listed here.

Every entry is a combination with VX-702 at 2000 nM: NC(=O)c1ccc(N(C(N)=O)c2c(F)cccc2F)nc1-c1ccc(F)cc1F

Drug key:
stibogluconate: O=C(O)[C@@H]1[O][Sb](=[O])([O][Sb]2(=[O])[O][C@H]([C@H](O)CO)[C@H](O)[C@H](C(=O)O)[O]2)[O][C@H]([C@H](O)CO)[C@@H]1O (stereo partly drawn) at 10000 nM
AZD7762: NC(=O)Nc1cc(-c2cccc(F)c2)sc1C(=O)N[C@H]1CCCNC1 at 100 nM
temozolomide: Cn1nnc2c(C(N)=O)ncn2c1=O at 10000 nM
OSU-03012: NCC(=O)Nc1ccc(-n2nc(C(F)(F)F)cc2-c2ccc3c(ccc4ccccc43)c2)cc1 at 5000 nM
GW441756: Cn1cc(/C=C2\C(=O)Nc3cccnc32)c2ccccc21 at 2000 nM
U73122: COc1ccc2c(c1)CCC1C2CCC2(C)C(NCCCCCCN3C(=O)C=CC3=O)CCC12 (stereo not drawn) at 2000 nM
crizotinib: C[C@@H](Oc1cc(-c2cnn(C3CCNCC3)c2)cnc1N)c1c(Cl)ccc(F)c1Cl at 1000 nM
KU-0063794: COc1ccc(-c2ccc3c(N4CCOCC4)nc(N4C[C@@H](C)O[C@@H](C)C4)nc3n2)cc1CO at 100 nM

Cell line | stibogluconate | AZD7762 | U73122 | GW441756 | OSU-03012 | KU-0063794 | temozolomide | crizotinib
LB2518-MEL | 35.7 | 119 | 50.9 | 61.8 | 234 | 54.0 | 104 | 85.8
COLO 800 | 88.3 | 65.7 | 176 | 78.9 | 131 | 95.4 | 66.9 | 159
LOX IMVI | 205 | 48.9 | 157 | 13.2 | 94.4 | 116 | 59.7 | 83.9
RPMI-7951 | 62.4 | 327 | 210 | 58.7 | 511 | 129 | 93.0 | 116
UACC-62 | 148 | 127 | 217 | 58.6 | 129 | 263 | 256 | 135
MeWo | 83.5 | 165 | 794 | 130 | 213 | 20.6 | 64.3 | 75.1
WM3526 | 135 | 615 | 119 | 108 | 247 | 133 | 144 | 59.6
IST-MEL1 | 95.3 | 155 | 139 | 141 | 193 | 111 | 118 | 92.4
RVH-421 | 134 | 66.4 | 63.5 | 39.9 | 153 | 64.8 | 85.2 | 163
A101D | 132 | 124 | 101 | 92.6 | 119 | 74.4 | 80.9 | 76.4
A2058 | 64.4 | 507 | 192 | 165 | 112 | 86.8 | 621 | 134
IPC-298 | 36.3 | 161 | 434 | 58.9 | 332 | 66.3 | 50.7 | 183
UACC-257 | 23.8 | 157 | 31.7 | 23.8 | 59.5 | 32.0 | 49.7 | 165
G-361 | 169 | 166 | 39.9 | 72.8 | 108 | 193 | 104 | 103
WM3619 | 96.2 | 594 | 168 | 122 | 132 | 152 | 80.7 | 63.9
WM1745 | 97.3 | 170 | - | - | 114 | - | 103 | 146
MEL-HO | 42.3 | 160 | 126 | 95.8 | 51.6 | 192 | 82.1 | 36.3
COLO 829 | 102 | 86.5 | 69.6 | 122 | 92.6 | 115 | 163 | 133
C32 | 182 | 319 | 153 | 81.9 | 95.0 | 92.0 | 155 | 93.9
WM115 | 235 | 185 | 121 | 124 | 324 | 178 | 274 | 319
WM451Lu | 183 | 126 | 119 | 94.4 | 94.0 | 87.5 | 117 | 73.8
SK-MEL-30 | 86.9 | 249 | 207 | 75.8 | 617 | 123 | 290 | 156
A375 | 45.5 | - | 456 | 58.5 | - | 53.1 | 113 | 81.5
SK-MEL-5 | 104 | 130 | 240 | 72.1 | 492 | 120 | 39.2 | 109
501mel | - | - | 83.5 | 99.6 | - | 102 | - | -
COLO 792 | 77.6 | 355 | 91.0 | 88.8 | 75.4 | 36.8 | 145 | 81.8
MZ2-MEL | 40.7 | 150 | 186 | 118 | 54.8 | 188 | 122 | 56.7
SK-MEL-28 | 29.1 | 388 | 127 | 134 | 384 | 79.2 | 351 | 81.8
WM1716 | 54.1 | 533 | 55.6 | 67.0 | 94.0 | 70.5 | 494 | 57.8
SK-MEL-2 | 76.8 | 268 | 109 | 52.9 | 309 | 106 | 148 | 67.1

The last 2 entries again:

Cell line	stibogluconate	AZD7762	U73122	GW441756	OSU-03012	KU-0063794	temozolomide	crizotinib
WM1716	54.1	533	55.6	67.0	94.0	70.5	494	57.8
SK-MEL-2	76.8	268	109	52.9	309	106	148	67.1